Test [1] addresses mouse RELN-H3448R (mRELN-COLBOS) of the knockin mouse (mouse (endogenous in knockin mice)) (UniProt Q60841). Put plainly: western blot of higher molecular weight oligomers; cerebellum homogenates of WT, heterozygous and homozygous RELN-H3448R knockin mice; enhanced oligomerization seen only in male mice; details in Supplementary Figs. 8 and 9.
In test [2] the target is T1, neuropilin 1 (NRP1) (UniProt O14786).
T1 sequence (chain, biotinylated at a 1,2 molar ratio): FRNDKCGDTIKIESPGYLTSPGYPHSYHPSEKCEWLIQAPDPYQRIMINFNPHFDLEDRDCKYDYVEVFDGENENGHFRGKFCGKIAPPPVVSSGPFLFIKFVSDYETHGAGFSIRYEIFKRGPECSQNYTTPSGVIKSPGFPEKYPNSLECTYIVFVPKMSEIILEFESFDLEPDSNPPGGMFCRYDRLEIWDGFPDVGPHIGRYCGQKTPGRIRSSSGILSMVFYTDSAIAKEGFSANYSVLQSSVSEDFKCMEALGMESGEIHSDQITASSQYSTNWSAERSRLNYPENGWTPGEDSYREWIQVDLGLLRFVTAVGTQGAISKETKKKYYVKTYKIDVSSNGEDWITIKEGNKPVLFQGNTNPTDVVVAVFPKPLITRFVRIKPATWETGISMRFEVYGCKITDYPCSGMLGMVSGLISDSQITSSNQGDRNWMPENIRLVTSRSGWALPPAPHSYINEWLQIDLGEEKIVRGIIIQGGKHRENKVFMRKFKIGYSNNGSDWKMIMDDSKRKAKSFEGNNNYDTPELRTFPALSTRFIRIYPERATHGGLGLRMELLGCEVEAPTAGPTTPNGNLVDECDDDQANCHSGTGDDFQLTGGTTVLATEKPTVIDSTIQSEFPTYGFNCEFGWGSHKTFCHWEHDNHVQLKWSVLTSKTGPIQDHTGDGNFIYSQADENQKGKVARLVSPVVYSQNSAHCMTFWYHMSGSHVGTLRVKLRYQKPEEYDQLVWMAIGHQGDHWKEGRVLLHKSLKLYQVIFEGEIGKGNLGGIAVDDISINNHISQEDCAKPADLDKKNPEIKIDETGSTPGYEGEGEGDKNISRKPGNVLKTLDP
Put plainly: BLI; biotinylated NRP1 immobilised on streptavidin biosensor tips (Octet); 30 °C, 1,000 rpm; 240 s association, 300 s dissociation; SD Buffer (PBS, 0.05% Tween 20, 0.01% BSA, pH 7.4); 1:1 binding model, global fitting; both purified.

Results are given in words; binding and its absence hold for the method and conditions named. Some binding calls cover weakened binding; strength is not graded here. For some assays here: Where a sequence is shown, tags or fusion partners need not be part of it.

For the molecule “mouse RELN-H3448R (mRELN-COLBOS) of the knockin mouse (from UniProt Q60841 27-3461)”, the binding entry in test [1] is on record as “binds”.

For the molecule STRKQNYMMNFSRQHGLRHFYNRRRRSLRRYP (Fc fusion, UniProt P78509 3429-3460) [Fc-fusion WT CTR-RELN (C-terminal region of Reelin, amino acids 3,429-3,460)], in test [2], the binding entry was “binds”.

Values taken from PMC10202812, “Resilience to autosomal dominant Alzheimer’s disease in a Reelin-COLBOS heterozygous man” (Nature Medicine, 2023).
